From doi:10.1101/2024.04.19.590210
No constants are given. Whether binding was seen depends on the method and setting. Binding seen in cells or lysates may run through a third protein. Binding calls can cover weak binding; strength is not graded here.

Amino acid sequences for entries named in this document (tags omitted). A change or cut given only in a name is not applied to a line headed by its entry.
UniProt Q39057: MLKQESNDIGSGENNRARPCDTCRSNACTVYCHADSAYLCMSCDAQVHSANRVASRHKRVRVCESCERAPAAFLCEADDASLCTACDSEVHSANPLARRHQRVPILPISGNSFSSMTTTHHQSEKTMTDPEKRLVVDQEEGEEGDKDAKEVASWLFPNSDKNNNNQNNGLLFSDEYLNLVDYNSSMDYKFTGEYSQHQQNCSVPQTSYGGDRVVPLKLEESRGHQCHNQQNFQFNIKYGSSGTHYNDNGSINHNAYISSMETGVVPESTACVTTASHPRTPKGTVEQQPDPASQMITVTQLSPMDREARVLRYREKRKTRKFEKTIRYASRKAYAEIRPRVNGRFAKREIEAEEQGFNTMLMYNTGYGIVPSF
UniProt O81834: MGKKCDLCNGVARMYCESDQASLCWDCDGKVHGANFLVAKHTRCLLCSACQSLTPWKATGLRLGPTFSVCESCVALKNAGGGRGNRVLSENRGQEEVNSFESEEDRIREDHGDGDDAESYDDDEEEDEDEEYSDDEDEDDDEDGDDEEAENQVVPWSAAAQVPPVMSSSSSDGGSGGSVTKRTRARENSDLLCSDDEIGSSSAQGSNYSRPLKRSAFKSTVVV

Molecular target: cYFP-CO (Arabidopsis thaliana) (UniProt Q39057)
Assay: split reporter

With “BBX28 in pCL112 (nYFP fusion) (from UniProt O81834)” the binding was “binds”.
